Among the data in paper PMC4855679 are binding values, retold here.

Amino acid sequences for entries named in this document (tags omitted). A change or cut given only in a name is not applied to a line headed by its entry. Chains listed by the source or under a name are the forms on record and can include a tag or linker. Residues count along the entry.
UniProt P37238: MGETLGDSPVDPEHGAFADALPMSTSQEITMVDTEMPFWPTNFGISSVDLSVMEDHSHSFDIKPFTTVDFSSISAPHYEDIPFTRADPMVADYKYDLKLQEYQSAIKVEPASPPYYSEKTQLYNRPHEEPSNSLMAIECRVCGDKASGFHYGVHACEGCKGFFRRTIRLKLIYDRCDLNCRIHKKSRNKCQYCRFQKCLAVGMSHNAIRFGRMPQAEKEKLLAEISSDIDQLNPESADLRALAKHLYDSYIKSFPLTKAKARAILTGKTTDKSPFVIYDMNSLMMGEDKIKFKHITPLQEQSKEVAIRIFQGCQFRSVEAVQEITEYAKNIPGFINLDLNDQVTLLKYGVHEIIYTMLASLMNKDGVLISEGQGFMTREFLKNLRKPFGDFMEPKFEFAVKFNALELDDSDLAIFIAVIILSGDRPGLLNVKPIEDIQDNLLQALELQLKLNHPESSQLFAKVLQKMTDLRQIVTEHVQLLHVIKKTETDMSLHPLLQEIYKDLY
HA-tagged PPAR-γ2 amino acids 1–280: residues 1-280 of P37238
HA-tagged PPAR-γ2 amino acids 1–183: residues 1-183 of P37238
HA-tagged PPAR-γ2 residues 183–505: residues 183-505 of P37238
UniProt O35973: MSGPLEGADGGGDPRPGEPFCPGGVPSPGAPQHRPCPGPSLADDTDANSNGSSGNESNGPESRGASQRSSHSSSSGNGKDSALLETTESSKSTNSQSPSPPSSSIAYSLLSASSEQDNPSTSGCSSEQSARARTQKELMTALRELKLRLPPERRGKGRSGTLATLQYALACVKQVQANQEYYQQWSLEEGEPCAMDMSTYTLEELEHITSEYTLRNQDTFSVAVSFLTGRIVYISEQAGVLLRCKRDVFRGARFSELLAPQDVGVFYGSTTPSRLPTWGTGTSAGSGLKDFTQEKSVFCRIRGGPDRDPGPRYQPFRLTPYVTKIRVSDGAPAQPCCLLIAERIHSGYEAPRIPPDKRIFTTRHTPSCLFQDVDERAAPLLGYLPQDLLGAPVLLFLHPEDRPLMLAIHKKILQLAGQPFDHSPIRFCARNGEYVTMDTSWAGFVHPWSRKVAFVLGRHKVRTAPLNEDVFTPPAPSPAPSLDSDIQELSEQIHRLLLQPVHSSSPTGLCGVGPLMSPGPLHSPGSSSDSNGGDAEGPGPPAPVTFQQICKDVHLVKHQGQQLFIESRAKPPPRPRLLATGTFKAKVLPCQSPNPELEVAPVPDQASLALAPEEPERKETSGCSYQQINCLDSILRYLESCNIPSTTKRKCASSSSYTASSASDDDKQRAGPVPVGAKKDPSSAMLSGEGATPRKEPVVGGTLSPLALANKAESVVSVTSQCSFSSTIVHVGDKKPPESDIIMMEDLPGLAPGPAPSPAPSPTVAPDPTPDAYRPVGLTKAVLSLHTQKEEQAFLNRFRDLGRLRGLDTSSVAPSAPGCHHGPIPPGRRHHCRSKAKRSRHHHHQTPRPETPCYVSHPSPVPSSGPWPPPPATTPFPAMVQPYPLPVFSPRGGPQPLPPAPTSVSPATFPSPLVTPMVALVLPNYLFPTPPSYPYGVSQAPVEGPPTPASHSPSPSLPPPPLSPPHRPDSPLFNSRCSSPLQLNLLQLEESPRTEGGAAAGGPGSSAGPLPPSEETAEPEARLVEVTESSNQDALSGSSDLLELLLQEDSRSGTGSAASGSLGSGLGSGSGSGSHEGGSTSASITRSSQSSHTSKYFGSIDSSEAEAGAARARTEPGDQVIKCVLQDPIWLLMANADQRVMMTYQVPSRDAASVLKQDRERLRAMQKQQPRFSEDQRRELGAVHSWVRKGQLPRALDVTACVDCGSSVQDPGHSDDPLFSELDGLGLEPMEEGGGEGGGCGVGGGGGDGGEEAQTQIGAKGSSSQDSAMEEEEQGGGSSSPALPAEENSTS

Results are given in words; binding and its absence hold for the method and conditions named. In cells and extracts the contact can be indirect. Some entries that bind do so weakly or less than the wild type.

Common to all, as to assay: co-IP; B6F10 cells co-transfected with HA-tagged fragments of PPAR-γ2 and PER1; lysis in 10 mM Tris-HCl pH 8, 420 mM NaCl, 1 mM EDTA, 0.5% NP-40; anti-HA antibody overnight at 4 °C, Protein A-Sepharose 4B; blot for PER1
Test [1] deals with HA-tagged PPAR-γ2 amino acids 1–183 (UniProt P37238).
Test [2] concerns the target HA-tagged PPAR-γ2 amino acids 1–280 (UniProt P37238).
Test [3] concerns the target HA-tagged PPAR-γ2 residues 183–505 (UniProt P37238).

On to PER1 (from UniProt O35973 1-1291), for which the values for the binding entry in test [1], in test [2] and in test [3] were “no binding”, “binds” and “no binding”, respectively.
